The values below come from the supplement of paper PMC9135407.

The structures appear in SMILES notation. Where “and” joins values, the source holds several entries; their conditions need not be identical. Equal values may be shown once. Where a name gives a salt, the structure may show the parent alone. ± gives the standard deviation of the averaged measurements. The list shows a part of the results. Part of the spread comes from offsets between plates or batches.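 Primary human stellate myofibroblasts activated in culture; inactivation shown by regained lipid droplets. Readout: fraction of Hoechst-counted cells exceeding a per-plate Bodipy threshold, duplicate wells, each plate with DMSO negative and nortriptyline positive controls. Hits: control-normalized score beyond the plate's top-tenth-percentile nortriptyline wells, or among its three best wells. Final well concentrations unstated.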

This assay has as its system primary human hepatic stellate cells (donor 1). Nature of the assay: percent Bodipy-positive cells; higher = more lipid droplet accumulation. The note with it: 48 h.
[1] abbreviates: library stock concentration: 3.33 mM.
Where [2] appears, read: library stock concentration: 10 mM.
[3] abbreviates: library stock concentration: 1 mM.
The mark [4] stands for this setting: library stock concentration: 80 uM.
Setting [5] is: library stock concentration: 400 uM.
The mark [6] stands for this setting: library stock concentration: 2 mM.

For the compound `O=C1CCc2cc(OCCCCc3nnnn3C3CCCCC3)ccc2N1` [Cilostazol], the “percent Bodipy-positive cells” value worked out at 29.8 ± 7%. The “percent Bodipy-positive cells” value under setting [1] came to 9.85 ± 4.9%. The “percent Bodipy-positive cells” value (library stock concentration: 5.4 mM) is 12.8 ± 7.3%. As to `N#C[C@@H]1C[C@@H]2C[C@@H]2N1C(=O)[C@@H](N)C12CC3CC(CC(O)(C3)C1)C2`, the “percent Bodipy-positive cells” value under setting [2] was 19.5 ± 6.1%. In the case of `N#C[C@@H]1C[C@@H]2C[C@@H]2N1C(=O)[C@@H](N)C12CC3CC(CC(O)(C3)C1)C2` [Saxagliptin], the “percent Bodipy-positive cells” value by setting is: under setting [1], 7.351 ± 0.03%; under setting [2], 15.9 ± 6.2%. In the case of `CCS(=O)(=O)CCn1c([N+](=O)[O-])cnc1C` [Tinidazole], the “percent Bodipy-positive cells” value amounted to 11.5 ± 0.94%. In addition, the “percent Bodipy-positive cells” value under setting [1] amounted to 8.82 ± 3.5%. For the same compound, the “percent Bodipy-positive cells” value (library stock concentration: 8.1 mM) is 8.03% and 20.6%. Under setting [2], the “percent Bodipy-positive cells” value was 34% and 33.5%. Consider `CCS(=O)(=O)CCn1c([N+](=O)[O-])cnc1C`, for which the “percent Bodipy-positive cells” value under setting [2] is 8.84 ± 2.6%. The same measure, in the same setting: the result for `CC[C@H]1OC(=O)[C@H](C)C(=O)[C@H](C)[C@@H](O[C@@H]2O[C@H](C)C[C@H](N(C)C)[C@H]2O)[C@](C)(OC)C[C@@H](C)C(=O)[C@H](C)[C@H]2N(CCCCn3cnc(-c4cccnc4)c3)C(=O)O[C@]12C` reads 49.4 ± 11%; that for `CC[C@H]1OC(=O)[C@H](C)C(=O)[C@H](C)[C@@H](O[C@@H]2O[C@H](C)C[C@H](N(C)C)[C@H]2O)[C@](C)(OC)C[C@@H](C)C(=O)[C@H](C)[C@H]2N(CCCCn3cnc(-c4cccnc4)c3)C(=O)O[C@]12C` [Telithromycin], 40.3 ± 12%.

On to `CCCCOc1cc(C(=O)NCCN(CC)CC)c2ccccc2n1` [Dibucaine HCl], for which, under setting [1], the “percent Bodipy-positive cells” value was determined as 29.8 ± 2%.

For `CCCCOc1cc(C(=O)NCCN(CC)CC)c2ccccc2n1` [Dibucaine hydrochloride], the “percent Bodipy-positive cells” value turned out to be 46.9 ± 10% (library stock concentration: 5.3 mM) and 21.8 ± 1.8% under setting [2]. On to `CCCCOc1cc(C(=O)NCCN(CC)CC)c2ccccc2n1` [Dibucaine], for which the “percent Bodipy-positive cells” value came out at 57.2 ± 8.4%. Take `Oc1ccc(-c2nc3cc(O)cc(Br)c3o2)cc1`: under setting [2], the “percent Bodipy-positive cells” value is 9.63 ± 1.5%.

As to `O=P(O)(O)C(Cl)(Cl)P(=O)(O)O` [Clodronic acid], the “percent Bodipy-positive cells” value under setting [2] is 38.1 ± 1%.

For the compound `O=C(O)CCC(=O)N1CCC[C@H]1C(=O)O` [N-Succinyl-L-proline], the “percent Bodipy-positive cells” value under setting [2] was 10.4 ± 0.9%. Regarding `N=C(N)NC(=O)c1nc(Cl)c(N)nc1N` [Amiloride HCl], the “percent Bodipy-positive cells” value reads like this: under setting [1], 10.3 ± 3.5%; under setting [2], 11.8 ± 1%.

Turning to `N=C(N)NC(=O)c1nc(Cl)c(N)nc1N` [Amiloride hydrochloride dihydrate], the “percent Bodipy-positive cells” value was 26.3 ± 3%. In the case of `N=C(N)NC(=O)c1nc(Cl)c(N)nc1N`, under “library stock concentration: 18.8 mM”, the “percent Bodipy-positive cells” value was 18 ± 10%.

Regarding `N=C(N)NC(=O)c1nc(Cl)c(N)nc1N` [Amiloride hydrochloride], the “percent Bodipy-positive cells” value (library stock concentration: 7.5 mM) is 2.79 ± 1.5%.

On to `N=C(N)NC(=O)c1nc(Cl)c(N)nc1N` [Amiloride], for which the “percent Bodipy-positive cells” value (library stock concentration: 8.7 mM) worked out at 6.94 ± 1%. On to `CC(C)[C@H](O)C(=O)O` [(S)-(+)-2-hydroxy-3-Methylbutyric Acid], for which the “percent Bodipy-positive cells” value under setting [3] worked out at 31.5 ± 35%. Same read-out and setting: under `O=C(O)CCC/C=C\C[C@@H]1[C@@H](/C=C/[C@@H](O)COc2cccc(C(F)(F)F)c2)[C@H](O)C[C@@H]1O` [Fluprostenol] stands 22.7% and 6.8%.

As to `COC(=O)[C@H]1[C@H]2C[C@@H]3c4[nH]c5cc(OC)ccc5c4CCN3C[C@H]2C[C@@H](OC(=O)c2cc(OC)c(OC)c(OC)c2)[C@@H]1OC` [Reserpine], the “percent Bodipy-positive cells” value under setting [2] is 82.8 ± 8.7%. Regarding `CN(C)C(=O)COC(=O)Cc1ccc(OC(=O)c2ccc(NC(=N)N)cc2)cc1` [Camostat Mesilate], the “percent Bodipy-positive cells” value is, setting by setting: under setting [1], 15.7 ± 3.3%; under setting [2], 21.5 ± 8%. Regarding `COc1ccc(Cc2cnc(N)nc2N)cc1OC`, the “percent Bodipy-positive cells” value under setting [2] was 25.2 ± 4.7%. Still for that read-out and setting: the result for `O=C(c1ccc(C=Cc2n[nH]c3ccccc23)cc1)N1CCNCC1` reads 98.22 ± 0.91%. In the case of `O=[N+]([O-])c1cccc2c(Br)[nH]nc12` [3-bromo-7-Nitroindazole], under setting [3], the “percent Bodipy-positive cells” value was 17.1 ± 18%. In the case of `CC(Cc1ccccc1)(NC(=O)CN)c1ccccc1` (stereo not given) [Remacemide hydrochloride], the “percent Bodipy-positive cells” value under setting [2] was 31.7 ± 0.73%.

As for `COc1cc(C)c(Sc2cnc(NC(=O)c3ccc(CNC(C)C(C)C)cc3)s2)cc1C(=O)N1CCN(C(C)=O)CC1` (stereo not given), the “percent Bodipy-positive cells” value runs as follows: under setting [4], 12.2 ± 1.3%; under setting [5], 17.7 ± 7.7%; under setting [6], 43.8 ± 4.6%. As for `CC(C)(C)C(=O)OCOC(=O)[C@@H]1N2C(=O)[C@@H](NC(=O)[C@H](N)c3ccccc3)[C@H]2SC1(C)C` [Pivampicillin], the “percent Bodipy-positive cells” value was 12.9 ± 4.5%.

`CCCCOc1c(C(=O)c2c(F)cc(C)cc2F)c[nH]c2nncc1-2`: the “percent Bodipy-positive cells” value under setting [1] came out at 47.6 ± 0.76% and the “percent Bodipy-positive cells” value under setting [2] is 56.5 ± 3.1%. As to `CC1(C)Oc2ccc(C#N)cc2[C@H](N2CCCC2=O)[C@H]1O` [Cromakalim], under setting [2], the “percent Bodipy-positive cells” value was determined as 2.95 ± 1.1%. The same measure, in the same setting: the result for `COc1cccc(OC)c1OCCNCC1COc2ccccc2O1` (stereo not given) [WB-4101 hydrochloride] reads 67 ± 13%; that for `COc1cccc(OC)c1OCCNCC1COc2ccccc2O1` (stereo not given) [WB 4101 hydrochloride], 29.8 ± 4.7%.

For the compound `Nc1ccccc1NC(=O)c1ccc(CNC(=O)OCc2cccnc2)cc1` [Entinostat (MS-275)], the “percent Bodipy-positive cells” value was 35 ± 0.7% under setting [1] and 61.5 ± 5.2% under setting [2]. For `Nc1ccccc1NC(=O)c1ccc(CNC(=O)OCc2cccnc2)cc1`, the “percent Bodipy-positive cells” value was 32.6 ± 3.6% under setting [4]; 34.9 ± 8.6% under setting [5]; 23.4 ± 3.1% under setting [3]; 50.5 ± 7.5% under setting [6]; 85.7 ± 1.9% under setting [2].

Consider `O=C1NCN(c2ccccc2)C12CCN(CCCC(c1ccc(F)cc1)c1ccc(F)cc1)CC2` [Fluspirilen], for which the “percent Bodipy-positive cells” value turned out to be 10.8 ± 1.5%. For the compound `CC(=O)SCC[N+](C)(C)C` [Acetylthiocholine chloride], the “percent Bodipy-positive cells” value under setting [2] turned out to be 31.2 ± 8.7%.

Turning to `NC(=O)Cc1cccc(C(=O)c2ccccc2)c1N` [Nepafenac], the “percent Bodipy-positive cells” value is, setting by setting: under setting [1], 7.34 ± 3.1%; under setting [2], 5.99 ± 1.3%.
